Measured values: paper PMC9867762
These are yes or no findings as the source states them, for the method shown. Binding seen in cells or lysates may run through a third protein. Some results given as binding are weak or reduced against the parent protein; the word gives no strength.

Chains of the proteins cited; added tags and fusions are not shown.
UniProt P14598: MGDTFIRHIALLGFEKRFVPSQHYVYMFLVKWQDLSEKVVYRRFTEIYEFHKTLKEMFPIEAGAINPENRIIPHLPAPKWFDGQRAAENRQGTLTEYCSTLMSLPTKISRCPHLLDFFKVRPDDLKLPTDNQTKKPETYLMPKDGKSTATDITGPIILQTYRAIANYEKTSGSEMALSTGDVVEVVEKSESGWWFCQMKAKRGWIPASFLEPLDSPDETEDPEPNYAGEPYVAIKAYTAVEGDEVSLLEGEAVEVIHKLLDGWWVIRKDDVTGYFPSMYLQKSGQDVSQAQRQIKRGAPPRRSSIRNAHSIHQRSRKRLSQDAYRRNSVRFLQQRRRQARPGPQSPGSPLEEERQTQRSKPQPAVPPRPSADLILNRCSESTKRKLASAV

Molecular target: T1, NADPH oxidase 2 (NOX2)/gp91phox (human (endogenous in SH-SY5Y)) (UniProt P04839)
T1 sequence: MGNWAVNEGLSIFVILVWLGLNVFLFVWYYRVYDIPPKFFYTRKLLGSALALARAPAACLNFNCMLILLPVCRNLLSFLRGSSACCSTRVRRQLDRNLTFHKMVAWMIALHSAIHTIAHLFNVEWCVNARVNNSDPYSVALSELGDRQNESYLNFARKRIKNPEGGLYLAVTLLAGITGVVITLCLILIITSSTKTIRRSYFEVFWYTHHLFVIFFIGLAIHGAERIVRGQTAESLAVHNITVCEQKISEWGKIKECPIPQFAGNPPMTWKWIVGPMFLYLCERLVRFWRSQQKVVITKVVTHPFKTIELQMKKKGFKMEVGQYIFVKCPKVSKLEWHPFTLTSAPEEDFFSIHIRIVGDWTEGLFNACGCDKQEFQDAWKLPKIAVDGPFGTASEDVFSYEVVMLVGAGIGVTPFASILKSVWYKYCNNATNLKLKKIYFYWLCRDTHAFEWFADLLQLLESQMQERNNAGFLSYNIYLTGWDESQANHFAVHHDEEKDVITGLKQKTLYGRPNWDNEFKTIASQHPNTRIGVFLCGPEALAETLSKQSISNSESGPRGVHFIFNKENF
Experiment: co-IP; SH-SY5Y lysates immunoprecipitated with anti-gp91phox (or anti-IgG), blotted for p47phox; cells with or without crocetin (100 uM, 1 h) before MNNG (100 uM, 15 min)

NADPH oxidase subunit p47phox (from UniProt P14598 1-390)
binding: binds
